In the supplement of paper PMC7889204:
Structures can show the parent of a compound that is named as a salt. Some of the results follow. Most values come without repeats; read them as rough.

test system: C6; assay: cell mass (Coomassie absorbance) after combination of library compound with HMBA, relative to vehicle control (fraction); higher = more remaining cells (less growth inhibition)

Structure (SMILES) | cell mass
Cc1ccc(C(=O)Nc2cccc(C(F)(F)F)c2)cc1Nc1nc(-c2cccnc2)nc2c1cnn2C + CC(=O)NCCCCCCNC(C)=O [hexamethylene bisacetamide] | 0.723
O=C(Nc1c[nH]nc1-c1nc2ccc(CN3CCOCC3)cc2[nH]1)NC1CC1 + CC(=O)NCCCCCCNC(C)=O [hexamethylene bisacetamide] | 0.259
Cn1c(=O)c(F)c(Nc2ccc(I)cc2F)c2c(=O)n(C[C@@H](O)CO)cnc21 + CC(=O)NCCCCCCNC(C)=O [hexamethylene bisacetamide] | 0.328
COc1ccccc1N1CCN(CCN2C(=O)CC3(CCCC3)CC2=O)CC1 + CC(=O)NCCCCCCNC(C)=O [hexamethylene bisacetamide] | 0.865
C[C@@H](Oc1cc(-n2cnc3ccc(CN4CCN(C)CC4)cc32)sc1C(N)=O)c1ccccc1C(F)(F)F + CC(=O)NCCCCCCNC(C)=O [hexamethylene bisacetamide] | 0.144
CCC1=C[C@@H]2CN(C1)Cc1c([nH]c3ccccc13)[C@@](C(=O)OC)(c1cc3c(cc1OC)N(C)[C@H]1[C@@](O)(C(=O)OC)[C@H](OC(C)=O)[C@]4(CC)C=CCN5CC[C@@]31[C@H]54)C2 [Vinorelbine(Navelbine)] + CC(=O)NCCCCCCNC(C)=O [hexamethylene bisacetamide] | 0.292
COc1cc(Nc2ncc(F)c(Nc3ccc4c(n3)N(COP(=O)(O)O)C(=O)C(C)(C)O4)n2)cc(OC)c1OC + CC(=O)NCCCCCCNC(C)=O [hexamethylene bisacetamide] | 0.378
C=CC(=O)N1CCC[C@@H](n2nc(-c3ccc(Oc4ccccc4)cc3)c3c(N)ncnc32)C1 + CC(=O)NCCCCCCNC(C)=O [hexamethylene bisacetamide] | 0.693
COc1cc(Nc2ncc(F)c(Nc3ccc4c(n3)NC(=O)C(C)(C)O4)n2)cc(OC)c1OC + CC(=O)NCCCCCCNC(C)=O [hexamethylene bisacetamide] | 0.548
CC(C)Cc1ccc(C(C)C(=O)O)cc1 (configuration not stated) [Ibuprofen Lysine] + CC(=O)NCCCCCCNC(C)=O [hexamethylene bisacetamide] | 0.832
CC1=C(C(=O)Nc2cc3cn[nH]c3cc2F)C(c2ccc(C(F)(F)F)cc2)CC(=O)N1 (configuration not stated) + CC(=O)NCCCCCCNC(C)=O [hexamethylene bisacetamide] | 0.39
Cc1csc(-c2nnc(Nc3ccc(Oc4ncccc4-c4ccnc(N)n4)cc3)c3ccccc23)c1 + CC(=O)NCCCCCCNC(C)=O [hexamethylene bisacetamide] | 0.414
Cc1ccc(-n2nc(C(C)(C)C)cc2NC(=O)Nc2ccc(OCCN3CCOCC3)c3ccccc23)cc1 + CC(=O)NCCCCCCNC(C)=O [hexamethylene bisacetamide] | 0.478
N#CC[C@H](C1CCCC1)n1cc(-c2ncnc3[nH]ccc23)cn1 + CC(=O)NCCCCCCNC(C)=O [hexamethylene bisacetamide] | 0.537
CN(C)Cc1cccc(N=C(c2ccccc2)c2c(O)[nH]c3cc(C(=O)N(C)C)ccc23)c1 + CC(=O)NCCCCCCNC(C)=O [hexamethylene bisacetamide] | 0.653
CC1=C(CC(=O)O)c2cc(F)ccc2/C1=C\c1ccc([S+](C)[O-])cc1 (configuration not stated) [Sulindac] + CC(=O)NCCCCCCNC(C)=O [hexamethylene bisacetamide] | 0.505

Structure (SMILES) | cell mass
O=C1[C@H](Cc2ccc(O)cc2)N2C(=O)CCN(C(=O)NCc3ccccc3)[C@H]2CN1Cc1cccc2ccccc12 + CC(=O)NCCCCCCNC(C)=O [hexamethylene bisacetamide] | 0.433
COc1nc(C)cnc1NS(=O)(=O)c1cccnc1-c1ccc(-c2nnco2)cc1 [Zibotentan(ZD4054)] + CC(=O)NCCCCCCNC(C)=O [hexamethylene bisacetamide] | 0.472
C[C@@H]1CN(CC(=O)Nc2ccc3c(c2)Cc2cccc(-c4cc(=O)cc(N5CCOCC5)o4)c2S3)C[C@H](C)O1 + CC(=O)NCCCCCCNC(C)=O [hexamethylene bisacetamide] | 0.68
CC(C)(C)c1cc(C(C)(C)C)c(NC(=O)c2c[nH]c3ccccc3c2=O)cc1O + CC(=O)NCCCCCCNC(C)=O [hexamethylene bisacetamide] | 0.598
CC(C)(C(=O)NCC(F)(F)C(F)(F)F)C(=O)N[C@@H]1C(=O)Nc2ccccc2-c2ccccc21 + CC(=O)NCCCCCCNC(C)=O [hexamethylene bisacetamide] | 0.918
NC(=O)Nc1cc(-c2cccc(F)c2)sc1C(=O)N[C@H]1CCCNC1 + CC(=O)NCCCCCCNC(C)=O [hexamethylene bisacetamide] | 0.252
O=C1NC(=O)C(=Cc2ccc(-c3ccc(F)cc3)o2)S1 (stereo in doubt) + CC(=O)NCCCCCCNC(C)=O [hexamethylene bisacetamide] | 0.695
CC(C)(C)Cn1c(N)nc2ccc(-c3[nH]c(C(C)(C)C)nc3-c3ccc(F)cc3)nc21 + CC(=O)NCCCCCCNC(C)=O [hexamethylene bisacetamide] | 0.544
CC[C@@H]1C(=O)N(C)c2cnc(Nc3ccc(C(=O)N[C@H]4CC[C@H](N5CCN(CC6CC6)CC5)CC4)cc3OC)nc2N1C(C)C + CC(=O)NCCCCCCNC(C)=O [hexamethylene bisacetamide] | 0.197
Cc1ccc([N+](=O)[O-])cc1S(=O)(=O)N(C)/N=C/c1cnc2ccc(Br)cn12 [PIK-75 Hydrochloride] + CC(=O)NCCCCCCNC(C)=O [hexamethylene bisacetamide] | 0.162
COC(=O)Nc1ccc(-c2nc(N3CCOCC3)c3cnn(C4CCN(Cc5cccnc5)CC4)c3n2)cc1 + CC(=O)NCCCCCCNC(C)=O [hexamethylene bisacetamide] | 0.612
Cc1ncc(-c2ccnc(Nc3ccc(S(C)(=O)=O)cc3)n2)n1C(C)C + CC(=O)NCCCCCCNC(C)=O [hexamethylene bisacetamide] | 0.652
Cc1cc(C(=O)NOCCO)c(Nc2ccc(I)cc2F)n(C)c1=O + CC(=O)NCCCCCCNC(C)=O [hexamethylene bisacetamide] | 0.27
Cc1c(C(=O)Nc2ccc(N3C[C@@H](C)O[C@@H](C)C3)nc2)cccc1-c1ccc(OC(F)(F)F)cc1 + CC(=O)NCCCCCCNC(C)=O [hexamethylene bisacetamide] | 0.601
CCc1cccc2c3c([nH]c12)[C@](CC)(CC(=O)O)OCC3 [Etodolac(Lodine)] + CC(=O)NCCCCCCNC(C)=O [hexamethylene bisacetamide] | 0.511
COc1ccc(-c2ccc3c(N4CCOCC4)nc(N4C[C@@H](C)O[C@@H](C)C4)nc3n2)cc1CO + CC(=O)NCCCCCCNC(C)=O [hexamethylene bisacetamide] | 0.417

Nothing new here: an excerpt of the list.
Structure (SMILES) | cell mass
C[C@@H]1CN(CC(=O)Nc2ccc3c(c2)Cc2cccc(-c4cc(=O)cc(N5CCOCC5)o4)c2S3)C[C@H](C)O1 + CC(=O)NCCCCCCNC(C)=O [hexamethylene bisacetamide] | 0.68
CC(C)(C)c1cc(C(C)(C)C)c(NC(=O)c2c[nH]c3ccccc3c2=O)cc1O + CC(=O)NCCCCCCNC(C)=O [hexamethylene bisacetamide] | 0.598
